Record: PubChem BioAssay AID1259424 (University of Nebraska Medical Center, 2018)
This is one part, drawn at random, of about 14,000 reagents. 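Higher correlation or smaller distance means closer resemblance to KSR1 loss; control wells, including KSR1 knockdowns, recur on many plates.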 Not stated in the record: the time to read-out.

- Assay: 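Seek colon cancer survival genes behaving like KSR1, using a six-gene signature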 (primary screen)
- System: human HCT116 colon cancer cells
- Reagents: siRNA pool against human genes, 50 nM
- Measured: 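Six signature mRNAs by branched-DNA multiplex assay, scaled to two housekeeping genes and non-targeting median, log2; matched to mean KSR1 knockdown profile by Pearson correlation and euclidean distance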
- Scale: mean correlation with KSR1 profile and KSR1 correlation: higher = expression change more like KSR1 knockdown; mean distance from KSR1 profile: higher = expression change less like KSR1 knockdown

Gene | mean correlation with KSR1 profile | mean distance from KSR1 profile | KSR1 correlation, replicate 1 | KSR1 correlation, replicate 2 | KSR1 correlation, replicate 3
IRAG2 | -0.357 | 2.48 | -0.502 | -0.483 | -0.564
CX3CL1 | 0.557 | 1.55 | 0.52 | 0.42 | 0.64
PSPN | -0.124 | 1.33 | 0.242 | -0.216 | -0.238
NOD1 | 0.0904 | 1.29 | 0.0656 | 0.281 | 0.087
JUN | 0.233 | 1.58 | 0.518 | 0.338 | 0.143
PCDHGA1 | -0.709 | 2.53 | -0.721 | -0.721 | -0.584
AIFM2 | 0.142 | 4.17 | 0.0681 | -0.0768 | 0.498
SLC66A1 | -0.396 | 1.75 | -0.0884 | -0.357 | -0.548
SCRG1 | -0.508 | 2.63 | -0.191 | -0.531 | -0.638
SSBP2 | 0.00971 | 1.95 | 0.291 | 0.0317 | -0.146
SPIRE2 | 0.792 | 1.48 | 0.71 | 0.792 | 0.543
WASF1 | -0.0541 | 1.56 | 0.189 | 0.0398 | -0.0934
CUTA | -0.0477 | 3.29 | 0.0988 | -0.0651 | -0.0867
LYZL6 | -0.726 | 3.09 | -0.641 | -0.641 | -0.704
MYCN | -0.506 | 1.71 | 0.123 | -0.326 | -0.529
TK2 | -0.278 | 2.65 | -0.334 | -0.274 | -0.454
ZNF629 | 0.0445 | 2.73 | 0.0932 | -0.0402 | 0.0384
RUSC2 | 0.144 | 4.34 | 0.084 | 0.129 | 0.134
PLOD2 | 0.572 | 0.667 | 0.634 | 0.723 | 0.368
UBL5 | -0.445 | 3.19 | -0.252 | -0.397 | -0.552
AFAP1-AS1 | 0.288 | 2.4 | 0.152 | 0.0924 | 0.212
TIMM10B | 0.362 | 1.02 | 0.348 | -0.0542 | -0.33
LIMCH1 | -0.523 | 3.17 | -0.431 | -0.561 | -0.382
PLCH2 | -0.771 | 2.01 | -0.6 | -0.93 | -0.654
PTPN18 | -0.0983 | 2.31 | -0.162 | -0.101 | -0.221
CD68 | -0.772 | 2.24 | -0.781 | -0.892 | -0.706
OR2H2 | 0.487 | 1.5 | 0.534 | 0.431 | 0.561
CELA1 | -0.0559 | 3.12 | -0.206 | -0.0742 | -0.082
SLC35E2A | 0.656 | 0.674 | 0.707 | 0.533 | 0.789
NCKAP1 | -0.775 | 3.19 | -0.965 | -0.579 | -0.785
NEUROG2 | -0.454 | 3.47 | -0.464 | -0.404 | -0.209
NCKAP1L | -0.367 | 1.9 | -0.53 | -0.459 | -0.33
RESF1 | -0.484 | 1.76 | -0.702 | -0.438 | -0.528
IARS2 | 0.618 | 1.61 | 0.399 | 0.567 | 0.486
UTF1 | 0.0194 | 1.79 | 0.117 | 0.377 | -0.18
RIC8B | 0.0985 | 2.11 | 0.172 | -0.0736 | -0.0166
PDE1C | 0.909 | 0.515 | 0.646 | 0.737 | 0.514
ZSWIM6 | -0.479 | 1.99 | -0.558 | -0.294 | -0.253
CD163L1 | -0.669 | 2.14 | -0.792 | -0.54 | -0.803
FAM135B | -0.196 | 1.3 | -0.117 | -0.0784 | -0.361
FCRL3 | -0.771 | 1.96 | -0.776 | -0.66 | -0.732
NSDHL | -0.228 | 2.1 | -0.0673 | -0.591 | -0.26
PLEKHA1 | 0.797 | 0.84 | 0.775 | 0.88 | 0.627
FBXO42 | -0.011 | 1.51 | -0.0605 | 0.133 | 0.113
HMBS | -0.184 | 1.85 | 0.0984 | -0.57 | -0.225
UCK2 | -0.0583 | 3.35 | 0.469 | -0.0279 | -0.445
PRDM9 | 0.468 | 2.05 | 0.473 | 0.625 | 0.239
REPIN1 | 0.396 | 2.01 | 0.189 | 0.0203 | 0.266
CTTNBP2 | 0.478 | 1.32 | 0.248 | 0.28 | 0.632
MOCS3 | 0.0941 | 2.33 | 0.139 | -0.0567 | -0.309
CTCF | 0.3 | 2.43 | 0.514 | 0.455 | -0.0953
BCKDK | -0.0262 | 4.23 | 0.112 | 0.149 | -0.316
CD47 | 0.344 | 1.42 | 0.488 | -0.0809 | 0.674
RBSN | -0.461 | 1.86 | -0.547 | -0.323 | -0.163
SLC25A12 | 0.544 | 2.61 | 0.876 | 0.497 | 0.311
ASIP | -0.73 | 2.39 | -0.564 | -0.748 | -0.893
LYN | -0.0479 | 3.24 | 0.126 | 0.108 | -0.197
AJUBA | -0.0375 | 2.74 | -0.144 | 0.0347 | -0.228
RPS19 | -0.115 | 1.15 | -0.0324 | -0.139 | 0.476
IGSF9B | -0.174 | 1.28 | 0.234 | -0.486 | -0.118
PURA | 0.00835 | 1.94 | 0.61 | 0.117 | -0.0642
IL10 | 0.35 | 1.37 | 0.187 | 0.232 | 0.487
VAX1 | 0.455 | 1.86 | 0.401 | 0.454 | 0.524

Individual results from above:
UCK2, KSR1 correlation, replicate 2: -0.0279
PTPN18, KSR1 correlation, replicate 2 → -0.101
Value for SLC25A12 in “KSR1 correlation, replicate 3”: 0.311
VAX1, KSR1 correlation, replicate 1: 0.401
Result of RPS19 in “KSR1 correlation, replicate 1”: -0.0324
